Results taken from patent publication US5084442A, “Cyclic growth hormone releasing factor analogs and method for the manufacture thereof” (Hoffmann-La Roche Inc., priority 1988, dated 1992).
Not every detail of the peptide structures is certain; ends, links or a residue may be inferred. Peptide text beside a SMILES is read from it.

System: dispersed rat anterior pituitary cells (release of rat growth hormone)
Assay: In Vitro (Cell Dispersion) Assay of GRF: growth hormone release measured by RIA
Assay type: cell-based, rat (Sprague-Dawley)
Details: growth hormone release from cultured rat pituitary cells, 4 hours of incubation, peptide 0.8 to 200 fmol per ml; compared with natural GRF(1-44)-NH2 (= 1.0)
Method: In Vitro (Cell Dispersion) Assay of GRF
Pituitaries from 30-40 male Sprague-Dawley rats (175 g) were removed aseptically after decapitation. The anterior lobes were collected, washed 3 times in sterile Hepes buffer (0.025 M) (pH 7.35) and dispersed at 37° in 20-30 ml Hepes buffer (pH 7.35) containing collagenase (4 mg per ml) and Dispase (Protease grade II, 2 mg per ml). After gentle 100-110 min vortexing and trituration by Pasteur pipette, the dispersed cells were separated by centrifugation (150×g, 4 min) and re-suspended in Hepes buffer containing neuraminidase ([…]), and 200 µg/ml ethylenediaminetetraacetic acid (EDTA) disodium salt, pH 7.35, for 10 min.
The cells were washed twice with plating medium and plated on multiwell-plates (1.5×10^5 cells per ml) using the following defined medium: F-12/DMEM/BGJ (6:3:1) (Gibco: 430-1700/430-1600/320-2591) with 2 g BSA/1., 2.38 g Hepes/1.50 mg PSN antibiotic mixture (Gibco Laboratories), 10 mg/l transferring (Sigma T2252) with 1.83 g NaHCO3 /l (Baker 3506). The medium in each well was supplemented either with a sample of the novel GRF peptide or natural GRF(1-44)-NH2 at concentrations ranging from 0.8 to 200 fmol per ml of medium. Control wells contained no supplement. Plating was done with this medium added with 2% fetal calf serum to ensure rapid fixation of the cells. […]

SMILES | RELATIVE POTENCY
CC[C@H](C)[C@H](NC(=O)[C@H](C)NC(=O)[C@H](CC(=O)O)NC(=O)[C@H](C)NC(=O)[C@@H](N)Cc1ccc(O)cc1)C(=O)N[C@@H](Cc1ccccc1)C(=O)N[C@H](C(=O)N[C@@H](CC(N)=O)C(=O)N[C@@H](CO)C(=O)N[C@@H](Cc1ccc(O)cc1)C(=O)N[C@@H](CCCNC(=N)N)C(=O)N[C@@H](CCCCN)C(=O)N[C@H](C(=O)N[C@@H](CC(C)C)C(=O)NCC(=O)N[C@@H](CCC(N)=O)C(=O)N[C@@H](CC(C)C)C(=O)N[C@@H](CO)C(=O)N[C@@H](C)C(=O)N[C@@H](CCCNC(=N)N)C(=O)N[C@@H](CCCCN)C(=O)N[C@@H](CC(C)C)C(=O)N[C@@H](CC(C)C)C(=O)N[C@@H](CCC(N)=O)C(=O)N[C@@H](CC(=O)O)C(=O)N[C@H](C(=O)N[C@@H](CCSC)C(=O)N[C@@H](CO)C(=O)N[C@@H](CCCNC(=N)N)C(N)=O)[C@@H](C)CC)C(C)C)[C@@H](C)O [GRF(1-29)--NH2, GRF(1-29)-NH2, reference compound] | 0.8
CC[C@H](C)[C@H](NC(=O)[C@H](C)NC(=O)[C@H](CC(=O)O)NC(=O)[C@H](C)NC(=O)[C@@H](N)Cc1ccc(O)cc1)C(=O)N[C@@H](Cc1ccccc1)C(=O)N[C@H](C(=O)N[C@@H](CC(=O)O)C(=O)N[C@@H](CO)C(=O)N[C@@H](Cc1ccc(O)cc1)C(=O)N[C@@H](CCCNC(=N)N)C(=O)N[C@@H](CCCCN)C(=O)N[C@H](C(=O)N[C@@H](CC(C)C)C(=O)N[C@@H](C)C(=O)N[C@@H](CCC(N)=O)C(=O)N[C@@H](CC(C)C)C(=O)N[C@@H](CO)C(=O)N[C@@H](C)C(=O)N[C@@H](CCCNC(=N)N)C(=O)N[C@@H](CCCCN)C(=O)N[C@@H](CC(C)C)C(=O)N[C@@H](CC(C)C)C(=O)N[C@@H](CCC(N)=O)C(=O)N[C@@H](CC(=O)O)C(=O)N[C@H](C(=O)N[C@@H](CCSC)C(=O)N[C@@H](CO)C(=O)N[C@@H](CCCNC(=N)N)C(N)=O)[C@@H](C)CC)C(C)C)[C@@H](C)O [[Asp^8,Ala^15]GRF(1-29)--NH2, [Asp^8,Ala^15]-GRF(1-29)-NH2] (H-YADAIFTDSYRKVLAQLSARKLLQDIMSR-NH2) | 0.79
